In all, about 390,000 compounds went through this assay and about 4,000 (1%) were called active. The shares of active, inactive and inconclusive entries below differ from those in the screen. The call rests on the fitted dose curve; in most records, active means well fitted inhibition curve with a large enough effect; inconclusive means small, poorly fitted or top-dose-only effect, or another doubt; inactive means no such curve, though single readings can be large or run the other way. Potencies beside an inconclusive call are fits to weak or partial responses and may not hold up.
Biological target: DNA polymerase iota (Homo sapiens) (UniProt Q9UNA4)
Assay: qHTS for Inhibitors of Polymerase Iota
Conditions: Pol iota fluorescent replication assay, 10 min; series mostly up to 115 µM; activity, negative = inhibition: at the top concentration
Procedure, shortened: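 Fluorescent replication assay read twice, at 0 min and 10 min after adding 50 nM (final) substrate. Enzyme (10 nM) and compounds were first incubated 15 min at room temperature; enzyme-free buffer wells were negative controls.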
Potency means the concentration at half of the fitted maximal effect.

Chains of the proteins cited; added tags and fusions are not shown. Lines headed by an entry give the natural chain unless they say otherwise; changes in a name come on top.
UniProt Q9UNA4: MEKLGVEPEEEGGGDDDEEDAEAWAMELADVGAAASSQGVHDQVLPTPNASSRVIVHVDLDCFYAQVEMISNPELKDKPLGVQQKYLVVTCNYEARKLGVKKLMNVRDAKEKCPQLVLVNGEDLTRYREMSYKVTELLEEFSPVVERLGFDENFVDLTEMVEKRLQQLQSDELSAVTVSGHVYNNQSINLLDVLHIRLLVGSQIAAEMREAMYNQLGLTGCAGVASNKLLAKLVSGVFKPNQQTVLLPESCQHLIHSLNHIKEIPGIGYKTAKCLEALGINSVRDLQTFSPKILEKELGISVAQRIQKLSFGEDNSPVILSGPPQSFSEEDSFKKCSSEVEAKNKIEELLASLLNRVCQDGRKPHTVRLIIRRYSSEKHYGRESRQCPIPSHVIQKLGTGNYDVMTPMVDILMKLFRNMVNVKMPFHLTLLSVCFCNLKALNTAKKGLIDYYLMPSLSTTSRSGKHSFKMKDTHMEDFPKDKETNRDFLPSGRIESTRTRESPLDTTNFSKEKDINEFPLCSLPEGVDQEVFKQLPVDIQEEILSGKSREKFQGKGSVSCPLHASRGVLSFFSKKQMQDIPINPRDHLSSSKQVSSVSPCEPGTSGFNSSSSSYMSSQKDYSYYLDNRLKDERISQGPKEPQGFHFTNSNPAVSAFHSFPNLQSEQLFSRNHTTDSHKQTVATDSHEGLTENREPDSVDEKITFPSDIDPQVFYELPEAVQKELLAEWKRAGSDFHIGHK

SMILES	Potency	activity, negative = inhibition
O=C(c1ccc(=O)oc1)N1CCOCC1	inconclusive: 0.708 µM [inhibitor, full curve, poor fit]	
Cc1cccnc1NC(=O)Cn1c(=O)oc2ccccc21	inconclusive: 44.7 µM [inhibitor, partial curve]	
Cc1oc(-c2nc3ccccc3n2C)cc1C(=O)c1ccccc1	inconclusive: 39.8 µM [inhibitor, partial curve, poor fit]	
COc1ccc(C)cc1NCc1cccc(OC)c1OC	inconclusive: 25.1 µM [inhibitor, partial curve, poor fit]	
CCOC(=O)N1CCN(C(=O)C2CCN(S(=O)(=O)N3CCCC3)CC2)CC1	inconclusive: 70.8 µM [inhibitor, partial curve, poor fit]	
CC(=O)CCn1cc([N+](=O)[O-])nc1C	inconclusive: 100 µM [inhibitor, partial curve, poor fit]	
Cc1ccc(C)c(N2CCN(Cc3nnc(-c4ccccc4)o3)CC2)c1		inactive: 20.8%
COc1cccc(C(=O)c2cn(CC(=O)Nc3cccc(C)c3C)c3nc(C)ccc3c2=O)c1	inconclusive: 89.1 µM [inhibitor, single point]	
Oc1cc2cc(-c3csc(-c4ccc(F)cc4)n3)cc3c2n1CCC3		inactive: 28.5%
Cc1cccc(C)c1NC(=O)Cn1nc(C)c2sc3ccccc3c2c1=O		inactive: -14.5%
Cc1ccc(-c2nc3s/c(=C\c4ccco4)c(=O)n3n2)cc1	active: 25.1 µM	
O=C(CSc1n[nH]c(-c2ccncc2)n1)c1ccccc1	inconclusive: 50.1 µM [inhibitor, partial curve]	
CCn1cc2nc(SCc3ccccc3F)n(Cc3ccc(C)cc3)c(=O)c2n1		inactive: 0.141%
CC(=O)Oc1ccc(C(=O)OCC(=O)c2c(N)n(C)c(=O)n(C)c2=O)cc1OC(C)=O	inconclusive: 15.8 µM [inhibitor, full curve]	
Cc1ccc(-c2[nH]nc3c2C(c2ccoc2)C(C#N)=C(N)O3)cc1C (centres undefined)	inconclusive: 10 µM [inhibitor, full curve, poor fit]	
Cc1cc(C)c2cc(CN(Cc3ccco3)C(=O)NCc3ccccc3)c(=O)[nH]c2c1	inconclusive: 5.01 µM [inhibitor, full curve, poor fit]	
Cc1cc(=O)n(-c2ccc(C(=O)O)cc2)[nH]1	inconclusive: 1.58 µM [inhibitor, full curve, poor fit]	
CC(=O)Nc1ccc(Sc2ccccc2C(=O)O)cn1	inconclusive: 15.8 µM [inhibitor, partial curve, poor fit]	
COc1cc2c(NC3CCN(C)CC3)nc(N3CCCCC3)nc2cc1OCCOCCN1CCCC1	inconclusive: 50.1 µM [inhibitor, partial curve, poor fit]	
CC(=O)NC1=NN(C(C)=O)C(C)(c2cccs2)S1 (centres undefined)	inconclusive: 112 µM [inhibitor, single point]	
Cc1cc(C(=O)OCC(=O)N2CCOCC2)c2ccccc2n1	inconclusive: 11.2 µM [inhibitor, full curve, poor fit]	
CCC1CN(C(=O)Nc2ccc(C)c(F)c2)c2ccccc2S1 (centres undefined)		inactive: 0.89%

SMILES	Potency	activity, negative = inhibition
COc1cccc(C(=O)N/N=C/c2ccc(Oc3ccc([N+](=O)[O-])cn3)c(OC)c2)c1	inconclusive: 63.1 µM [inhibitor, partial curve, poor fit]	
COc1ccc(NC(=O)CN2CCc3ccccc3C2)c([N+](=O)[O-])c1		inactive: 150%
CCOCCCn1c(SCC(=O)NCc2ccco2)nc2c(sc3ccccc32)c1=O	inconclusive: 25.1 µM [inhibitor, full curve, poor fit]	
COc1ccc(NC(=O)CSc2nnc(C)n2C2CC2)cc1S(=O)(=O)N1CCOCC1	inconclusive: 35.5 µM [inhibitor, partial curve]	
COc1cccc(/C=N/NC(=O)CC2C(=O)NN=C2C)c1OC (centres undefined)	inconclusive: 79.4 µM [inhibitor, single point]	
Cc1nnc(N2CCC(C(=O)NCCc3ccccc3)CC2)c2nn(-c3ccc(Cl)cc3)c(C)c12		inactive: -10.3%
O=C(N/N=C/c1ccc(O)cc1O)c1ccc(NC(=O)C2CCCCC2)cc1	inconclusive: 89.1 µM [inhibitor, single point]	
O=C(CCc1nc2ccccc2c(=O)[nH]1)Nc1cc(C(F)(F)F)ccc1N1CCCC1		inactive: 26.2%
COc1ccc(OC)c(C(=O)/C=C/c2ccccc2C(F)(F)F)c1	inconclusive: 7.94 µM [inhibitor, full curve, poor fit]	
COc1ccc(/C=C2\SC(=O)N(CC(=O)Nc3cccnc3)C2=O)cc1OC		inactive: 25.9%
CC(C)(C)OC(=O)NC(Cc1ccccc1)C(=O)NC1COC2CC(n3ccc(=O)[nH]c3=O)OC12 (centres undefined)		inactive: 3.36%
Cc1c(NC(=S)N/N=C/c2ccc(O)cc2)c(=O)n(-c2ccccc2)n1C		inactive: 37.1%
Cc1ccc(S(=O)(=O)Nc2cc(Cl)c(O)c3ncccc23)cc1	inconclusive: 12.6 µM [inhibitor, partial curve, poor fit]	
CCc1cc(=O)oc2cc(C)cc(OC(C)C(=O)NC(Cc3c[nH]c4ccc(O)cc34)C(=O)O)c12 (centres undefined)	inconclusive: 20 µM [inhibitor, partial curve, poor fit]	
NC(=S)N/N=C/c1ccc(-n2nncc2-c2ccc(Cl)cc2)cc1	inconclusive: 8.91 µM [inhibitor, full curve, poor fit]	
CC(O)CNc1nc2c(c(=O)n(Cc3ccc(Cl)cc3)c(=O)n2C)n1C (centres undefined)	inactive	
Cc1ccc(NC(=O)CSc2sc3c(O)cc(=O)[nH]c3c2C#N)c(F)c1	inconclusive: 22.4 µM [inhibitor, full curve, poor fit]	
C=CCn1c(SCC(=O)N2CCCC2)nc2scc(-c3cccs3)c2c1=O		inactive: 16.5%
COc1ccc(-c2nn(-c3ccccc3)cc2CNC[C@H]2O[C@@H](n3cnc(C(N)=O)n3)[C@H](O)[C@@H]2O)cc1	inconclusive: 56.2 µM [inhibitor, partial curve, poor fit]	
CCOC(=O)C1=C(C)N=c2s/c(=C/c3cccc([N+](=O)[O-])c3O)c(=O)n2C1c1cc(OC)c(OC)c(OC)c1 (centres undefined)	inconclusive: 28.2 µM [inhibitor, partial curve, poor fit]	
COc1ccc(-c2cn3cccnc3n2)cc1NC(=O)c1cc(C)cc(C)c1		inactive: 8.41%
COc1ccc2occ(CC(=O)Nc3ccc(S(=O)(=O)Nc4nc(C)cc(C)n4)cc3)c2c1	active: 79.4 µM	

4 compounds picked at random from those above, as already listed:
SMILES	Potency	activity, negative = inhibition
O=C(CCc1nc2ccccc2c(=O)[nH]1)Nc1cc(C(F)(F)F)ccc1N1CCCC1		inactive: 26.2%
CCOC(=O)C1=C(C)N=c2s/c(=C/c3cccc([N+](=O)[O-])c3O)c(=O)n2C1c1cc(OC)c(OC)c(OC)c1 (centres undefined)	inconclusive: 28.2 µM [inhibitor, partial curve, poor fit]	
NC(=S)N/N=C/c1ccc(-n2nncc2-c2ccc(Cl)cc2)cc1	inconclusive: 8.91 µM [inhibitor, full curve, poor fit]	
CCc1cc(=O)oc2cc(C)cc(OC(C)C(=O)NC(Cc3c[nH]c4ccc(O)cc34)C(=O)O)c12 (centres undefined)	inconclusive: 20 µM [inhibitor, partial curve, poor fit]	

Continuation:

SMILES	Potency	activity, negative = inhibition
CCN(c1ccccc1)c1nnc(NC(=O)Nc2ccc(Br)cc2F)s1		inactive: 32.8%
CCOc1ccc2c(c1)NC(c1cccs1)=NC(c1ccc(F)cc1)=N2		inactive: -11.6%
Clc1nc(NC2CCCC2)nc(N2CCOCC2)n1	inconclusive: 100 µM [inhibitor, partial curve, poor fit]	
O=C1N/C(=N/S(=O)(=O)Cc2ccccc2)S/C1=C/c1ccc2c(c1)OCO2	inconclusive: 15.8 µM [inhibitor, full curve]	
CN(C)C(CNS(=O)(=O)c1cc([N+](=O)[O-])ccc1Cl)c1ccco1 (centres undefined)	inconclusive: 15.8 µM [inhibitor, partial curve, poor fit]	
COc1ccc2c(c1)cc1c(=O)n(CC(=O)NCCCc3ccccc3)nc(C)n12	inconclusive: 79.4 µM [inhibitor, single point]	
O=C(C=C1SCCS1)/C=C/c1ccco1	active: 35.5 µM	
COc1ccc(NC(=O)Nc2ccc3c(c2)C(=O)N([C@@H](C)CO)C[C@@H](C)[C@@H](CN(C)S(=O)(=O)c2cccs2)O3)cc1	inconclusive: 79.4 µM [inhibitor, partial curve]	
COCc1cc(C)nc(SCC(=O)N2CCC(C)CC2)c1C#N	inconclusive: 89.1 µM [inhibitor, partial curve, poor fit]	
c1csc(CCCN2CCCCC2)c1	inconclusive: 89.1 µM [inhibitor, single point]	
CC(C)c1cc(-c2cc(C(=O)Nc3ccccc3)on2)nc(NC2CCCC2)n1	inconclusive: 3.16 µM [inhibitor, full curve, poor fit]	
CCn1cc(C(=O)NN)c(=O)c2cc(F)c(N3CCN(C)CC3)cc21	inconclusive: 44.7 µM [inhibitor, partial curve, poor fit]	
Cc1cc(C)cc(NS(=O)(=O)c2ccc3[nH]cc(C(=O)NCc4ccccc4Cl)c(=O)c3c2)c1	inconclusive: 0.891 µM [inhibitor, partial curve, poor fit]	
CCOC(=O)c1ccc(Oc2nc(NC)nc(OC)n2)cc1	inconclusive: 3.55 µM [inhibitor, partial curve, poor fit]	
CC(=O)Nc1ccc(S(=O)(=O)N2CCCN(c3nc(C)cc(C)c3C#N)CC2)cc1		inactive: -7.55%
Cc1sc(NC(=O)C2CCCO2)c(C#N)c1C (centres undefined)	inconclusive: 44.7 µM [inhibitor, full curve]	
N#Cc1ccccc1OCC(=O)OCC(=O)c1ccc[nH]1	inconclusive: 63.1 µM [inhibitor, partial curve, poor fit]	
Nc1c(-c2ccc(F)cc2)cnn1C1CCS(=O)(=O)C1 (centres undefined)	inconclusive: 100 µM [inhibitor, partial curve]	
O=c1oc2ccccc2c(O)c1/C=C1\C=Nc2ccccc21	inconclusive: 3.16 µM [inhibitor, partial curve, poor fit]	
COc1cccc(-n2ccn(CC(=O)c3ccc(F)cc3)c(=O)c2=O)c1	inconclusive: 10 µM [inhibitor, partial curve, poor fit]	

Reference: PubChem BioAssay AID588590 (National Center for Advancing Translational Sciences (NCATS), 2011)
